The series can be described thus: Coloration of hair tresses with coloring cream of coupler plus developer component and hydrogen peroxide preparation. To be noted: 1/400 mol each, pH 9.5, 30 minutes at room temperature. The procedure:
To prepare the coloring cream, 50 g of a cream base are weighed into a 250 ml beaker and melted at 80° C. The cream base used had the following composition:
In each case, 1/400 mol of the developer or coupler component was suspended or dissolved with heating separately in distilled water. Ammonia (<1 ml; 25% strength ammonia solution) was then added until the pH was between 9 and 10.
The dissolved dye precursors were incorporated one after the other into the hot cream. Then, distilled water was used to make up to 97 g and ammonia was used to establish a pH of 9.5. After making up to 100 g with distilled water, the mixture was stirred under cold conditions (<30° C.), whereupon a homogeneous cream was formed.
For the colorations (unless noted otherwise) in each case 25 g of coloring cream were mixed with 25 g of the following oxidizing agent preparation.
A hair tress (80% gray; 330 mg to 370 mg in weight) was placed into each of the mixtures obtained in this way. The mixtures and the hair tresses were then each placed onto an watchglass and the hair tresses were thoroughly embedded into the coloring creams. After a contact time of 30 minutes (±1 minute) at room temperature, the hair tresses were removed and washed with an aqueous Texapon® EVR solution^9 until the color excess was removed. The hair tresses were dried under air and their color shade was determined under a daylight lamp (color testing instrument HE240A) and noted (Taschenlexikon der Farben [Pocket lexicon of colors], A. Kornerup & J. H. Wanscher, 3rd unrevised edition 1981, MUSTER-SCHMIDT Verlag; Zurich, Göttingen). ^9 Lauryl ether sulfate sodium salt with special additives (about 34 to 37% active substance content; INCI name: Sodium Lauryl Sulfate, Sodium Laureth Sulfate, Lauramide MIPA, Cocamide MEA, Glycol Stearate, Laureth-10) (Cognis)

[1] abbreviates: developer component 2,4,5,6-Tetraaminopyrimidine sulfate.
Setting [2] is: developer component 2-(2,5-Diaminophenyl)ethanol sulfate.
The mark [3] stands for this setting: developer component p-Tolylenediamine sulfate.

Each structure is given as a SMILES string.

Take `COc1c(C)cc(NCCO)cc1NCCO` [2,4-Bis[(2-hydroxyethyl)amino]-6-methylanisole]: the Coloration result is, setting by setting: under setting [1], “pepper red”; under setting [2], “gray-ruby”; (developer component 4,5-Diamino-1-(2-hydroxyethyl)pyrazole sulfate) “dark violet”; (developer component 4-Amino-2-[(5-amino-2-hydroxyphenyl)methyl]phenol dihydrochloride) “brown-violet”; (developer component 4-Amino-3-methylphenol) “brown-red”; (developer component p-Aminophenol) “cockscomb red”. Further, the Coloration result under setting [3] was “bordeaux red”.

For the molecule `COc1ccc(NCCO)cc1NCCO` [2,4-di(β-hydroxyethylamino-1-methoxybenzene, reference compound], the Coloration result is, setting by setting: under setting [1], “nordic blue”; under setting [2], “marine blue”; under setting [3], “black-blue”.

Turning to `OCCNc1ccc(NCCO)c2c(O)c(O)oc12` [4,7-bis(2-hydroxyethylamino)-2,3-dihydroxybenzofuran, reference compound], the Coloration result is given as “cinnamon brown” under setting [1], “gray-brown” under setting [2] and “gray-brown” under setting [3].

The values are drawn from patent US7211119B2, “Coupling components” (Henkel Kommanditgesellschaft auf Aktien (Henkel KGaA), priority 2002, dated 2007).
